# Part of at least one peptide drawing is inferred or uncertain, most often the ends.
# Key:
# Male rats [1] = assay: Diuretic and natriuretic action in anesthetized rats (urine collected via bladder cannula); format: in vivo, rat; details: for Na/K ratio A: 5 minutes after administration
# Description: To keep the respiratory tract open, a tracheal cannula (PE-240 Clay-Adams) was inserted into the trachea. An arterial cannula (PE-50) was inserted into a femoral artery for measurement of the blood pressure, and a venous cannula was inserted into a femoral vein for the administration of Ringer's solution. 1.2 ml of Ringer's solution was injected for ten minutes, and subsequently, was constantly infused at a flow rate of 1.2 ml/hour.
# A bladder cannula made of silastic tube with an inner diameter of 0.02 inches and an outer diameter of 0.037 inches was inserted into the bladder, and via the cannula, a urine sample was collected into a test tube. The collection of urine was carried out for 30 minutes before administration of the test compound, and every five minutes after the administration.
# The control group (group I) was administered 50 μl of physiological saline containing only bacitracin.
# Groups I to IV each consisted of three animals, and group V consisted of four animals.
# Male rats [2] = assay: Hypotensive action: blood pressure via femoral artery cannula in anesthetized rat; format: in vivo; details: 1.2 μg (0.4 n mole) administered to a rat
# chicken rectum = assay: Chicken rectum relaxation activity; details: used to select fractions containing α-hANP
smiles,measurement,setting,value
"CC[C@H](C)[C@@H]1NC(=O)[C@H](CCCNC(=N)N)NC(=O)[C@H](CC(=O)O)NC(=O)[C@H](CCSC)NC(=O)[C@H](CCCNC(=N)N)NC(=O)CNC(=O)CNC(=O)[C@H](Cc2ccccc2)NC(=O)[C@@H](NC(=O)[C@H](CO)NC(=O)[C@H](CO)NC(=O)[C@H](CCCNC(=N)N)NC(=O)[C@H](CCCNC(=N)N)NC(=O)[C@H](CC(C)C)NC(=O)[C@@H](N)CO)CSSC[C@@H](C(=O)N[C@@H](CC(N)=O)C(=O)N[C@@H](CO)C(=O)N[C@@H](Cc2ccccc2)C(=O)N[C@@H](CCCNC(=N)N)C(=O)N[C@@H](Cc2ccc(O)cc2)C(=O)O)NC(=O)CNC(=O)[C@H](CC(C)C)NC(=O)CNC(=O)[C@H](CO)NC(=O)[C@H](CCC(N)=O)NC(=O)[C@H](C)NC(=O)CNC1=O [α-hANP, α-human atrial natriuretic polypeptide]",Na/K ratio A,"Male rats [1]; 0.1 n mole, group II",0.47
same,Na/K ratio A,"Male rats [1]; 0.2 n mole, group III",0.97
same,Na/K ratio in urine,Male rats [1]; 0.4 n mole administrated,about 2.0
same,Na/K ratio A,"Male rats [1]; 0.4 n mole, group IV",2.00
same,increase in the sodium excretion,"Male rats [1]; 0.4 n mole, jugular vein, rat",~27 fold
same,increase in the urination volume,"Male rats [1]; 0.4 n mole, jugular vein, rat",~20 fold
same,speed of diuretic and natriuretic actions compared with furosemide (FIG. 1),"Male rats [1]; after administration, rat",more rapidly than furosemide
same,duration of blood pressure lowering (FIG. 2),Male rats [2],about 45 minutes
same,chicken rectum relaxation activity,chicken rectum,has this activity
